These are yes or no findings as the source states them, for the method shown. In cells and extracts the contact can be indirect. Some entries that bind do so weakly or less than the wild type.
Key:
[1] = target: T1, Nrf2 (mouse (endogenous in primary astrocytes)) (UniProt Q60795); test: co-IP; lysates of primary astrocytes (150 mM NaCl, 0.5% NP-40, 10% glycerol) precipitated with anti-Nrf2 antibody, blotted for PKM2 or PKM1; cells treated with 10 µM quinpirole, 50 µM DASA-58, 5 µM pyridoxine, or from β-arrestin2-knockout mice; PKM1 also overexpressed by adenovirus
T1 sequence: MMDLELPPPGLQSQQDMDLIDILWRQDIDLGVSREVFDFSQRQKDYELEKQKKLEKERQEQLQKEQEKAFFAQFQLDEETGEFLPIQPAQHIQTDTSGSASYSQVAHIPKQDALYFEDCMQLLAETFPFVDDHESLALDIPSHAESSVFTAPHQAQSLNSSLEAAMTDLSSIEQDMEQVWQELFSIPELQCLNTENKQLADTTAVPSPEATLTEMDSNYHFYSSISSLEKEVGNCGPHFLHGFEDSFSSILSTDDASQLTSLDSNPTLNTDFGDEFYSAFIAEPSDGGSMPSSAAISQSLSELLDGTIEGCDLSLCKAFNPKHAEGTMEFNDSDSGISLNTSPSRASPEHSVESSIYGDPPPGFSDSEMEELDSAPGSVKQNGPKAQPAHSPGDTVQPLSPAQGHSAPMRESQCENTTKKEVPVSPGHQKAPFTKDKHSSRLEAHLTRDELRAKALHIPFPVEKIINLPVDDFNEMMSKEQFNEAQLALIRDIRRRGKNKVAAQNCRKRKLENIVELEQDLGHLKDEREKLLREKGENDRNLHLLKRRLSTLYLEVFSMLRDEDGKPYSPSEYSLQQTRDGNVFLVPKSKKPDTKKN

Chains of the proteins cited; added tags and fusions are not shown. Lines headed by an entry give the natural chain unless they say otherwise; changes in a name come on top. A line that says so, or that is headed by a name, gives the form on record, which may keep a tag or linker.
UniProt Q91YI4: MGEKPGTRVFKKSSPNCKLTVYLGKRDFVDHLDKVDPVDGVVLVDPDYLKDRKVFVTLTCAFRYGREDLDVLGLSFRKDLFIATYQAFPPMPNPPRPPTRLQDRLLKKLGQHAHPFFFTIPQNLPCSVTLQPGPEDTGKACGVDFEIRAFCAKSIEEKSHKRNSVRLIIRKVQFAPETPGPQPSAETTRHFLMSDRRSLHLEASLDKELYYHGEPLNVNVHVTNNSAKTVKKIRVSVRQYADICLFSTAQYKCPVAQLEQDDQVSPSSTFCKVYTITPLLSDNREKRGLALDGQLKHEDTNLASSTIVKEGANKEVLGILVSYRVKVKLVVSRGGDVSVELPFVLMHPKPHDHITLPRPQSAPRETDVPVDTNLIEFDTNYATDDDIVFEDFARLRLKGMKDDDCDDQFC
UniProt P52480: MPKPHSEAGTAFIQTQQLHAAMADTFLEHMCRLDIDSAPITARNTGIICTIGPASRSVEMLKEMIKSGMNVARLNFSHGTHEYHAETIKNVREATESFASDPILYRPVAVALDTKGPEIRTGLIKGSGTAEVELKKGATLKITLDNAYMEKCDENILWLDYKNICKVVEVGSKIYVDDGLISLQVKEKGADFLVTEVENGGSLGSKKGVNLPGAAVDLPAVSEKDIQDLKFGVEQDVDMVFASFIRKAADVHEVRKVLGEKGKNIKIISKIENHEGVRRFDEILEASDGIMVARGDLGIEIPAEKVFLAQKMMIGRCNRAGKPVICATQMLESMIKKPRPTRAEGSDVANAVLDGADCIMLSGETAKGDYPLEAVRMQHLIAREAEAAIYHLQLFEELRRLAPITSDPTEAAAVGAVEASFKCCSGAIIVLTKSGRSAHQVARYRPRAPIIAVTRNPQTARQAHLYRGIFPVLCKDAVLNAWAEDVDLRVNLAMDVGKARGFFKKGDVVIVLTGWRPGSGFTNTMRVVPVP
3 X -FLAG-tagged PKM1 (P52480-2, form named): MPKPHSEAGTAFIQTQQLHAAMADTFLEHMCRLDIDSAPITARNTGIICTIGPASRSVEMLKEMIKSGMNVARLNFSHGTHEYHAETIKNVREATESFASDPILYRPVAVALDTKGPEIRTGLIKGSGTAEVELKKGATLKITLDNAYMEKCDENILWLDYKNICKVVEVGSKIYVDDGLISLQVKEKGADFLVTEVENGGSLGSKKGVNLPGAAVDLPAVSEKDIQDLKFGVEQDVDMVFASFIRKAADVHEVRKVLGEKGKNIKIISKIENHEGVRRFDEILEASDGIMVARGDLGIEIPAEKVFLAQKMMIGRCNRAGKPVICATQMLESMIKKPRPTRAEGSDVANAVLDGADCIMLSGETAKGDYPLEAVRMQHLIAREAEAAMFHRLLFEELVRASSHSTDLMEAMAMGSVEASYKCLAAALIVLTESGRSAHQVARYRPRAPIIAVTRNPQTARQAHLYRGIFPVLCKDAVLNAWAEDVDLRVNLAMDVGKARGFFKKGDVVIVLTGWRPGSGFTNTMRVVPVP

[2] = target: β-arrestin2 (mouse (endogenous in primary astrocytes)) (UniProt Q91YI4); test: co-IP; lysates of primary astrocytes (150 mM NaCl, 0.5% NP-40, 10% glycerol) precipitated with anti-β-arrestin2 antibody, blotted for PKM2; after DRD2 activation with quinpirole
[3] = target: T1, Nrf2 (mouse (endogenous in primary astrocytes)); test: proximity ligation; Duolink PLA in fixed primary astrocytes with mouse anti-Nrf2 and rabbit anti-PKM2 antibodies; cells treated with 10 µM quinpirole, 50 µM DASA-58, 5 µM pyridoxine, or from β-arrestin2-knockout mice

PKM1 (from UniProt P52480-2 1-531) (enzyme)
binding [1]: no binding

3 X -FLAG-tagged PKM1 (from UniProt P52480-2 1-531) (enzyme)
binding [1]: no binding

PKM2 (from UniProt P52480 1-531) (enzyme)
binding [2]: binds | binding [3]: binds | binding [1]: binds

Source: PMC7029000
